{"source": "patent US20260207722A1", "about": "“COMBINATION FOR TREATMENT OF AUTOIMMUNE DISEASES” (Bonsai Biotherapeutics AB, priority 2023, published 2026)", "tested_on": "experimental autoimmune myasthenia gravis (EAMG)", "experiment": "EAMG clinical score, rats treated with TOL2 and/or methylprednisolone (Example 1)", "assay_type": "in vivo, rat", "conditions": "TOL2 100 or 500 μg iv, methylprednisolone 1 mg ip, vs PBS-treated controls", "note": "At least one structure is not confirmed: it was looked up by name or label, or the drawing left a doubt.", "data": [{"compound": "C[C@H]1C[C@@H]2[C@H]([C@@H](O)C[C@@]3(C)[C@H]2CC[C@]3(O)C(=O)CO)[C@@]2(C)C=CC(=O)C=C12", "note": "[methylprednisolone]", "values": [{"measurement": "EAMG score", "setting": "treatment started 7 days after EAMG induction (preventive), FIG. 1A", "value": "slight improvement"}, {"measurement": "EAMG score", "setting": "treatment started 40 days after EAMG induction (therapeutic), FIG. 2A", "value": "did not show any improvement at all"}]}]}
